The data set deals with Kidney-Chip (Co-culture of Proximal tubular cells and Kidney endothelial cells). The experiment in a line: Gene expression (raw Ct, qPCR) in Kidney-Chip after nephrotoxic compounds. Type of data set: cell-based, human. Particulars: Cisplatin 100 μM or Gentamicin 10 mM, 24 h, RNA lysate Day 8; for Raw Ct value 18s RNA: housekeeping gene. (Quantitative PCR measures a nucleic acid by following its amplification.)

With `N.N.[Cl][Pt][Cl]` [Cisplatin], the “Raw Ct value CLU (Clusterin)” value was 21.15, the “Raw Ct value KIM1” value came out at 26.69, the “Raw Ct value OAT1” value is 34.46 and the “Raw Ct value OAT3” value was 27.23. Further, the “Raw Ct value 18s RNA” value is listed as 6.419.

For the compound Gentamicin, the “Raw Ct value CLU (Clusterin)” value was 18.6417, the “Raw Ct value KIM1” value stood at 23.4566, the “Raw Ct value OAT1” value was found to be 33.92 and the “Raw Ct value OAT3” value was determined as 35.65. Moreover, the “Raw Ct value 18s RNA” value is reported as 5.525.

(Values after US11841361B2, “Microfluidic proximal tubule kidney-on-chip” (EMULATE, INC., priority 2019, dated 2023).)
